# Measurements from patent US11767298B2, “Substituted benzimidazoles as inhibitors of transforming growth factor-β kinase” (Duke University, priority 2016, dated 2023).
# At least one compound was matched to its structure with a doubt left.
# System: ATP-binding proteins
# Assay: ATP-beads off-target elution, HepG2 whole-cell lysates
# Conditions: uninfected HepG2 lysate; compared to DMSO control
compound,measurement,value
"COC1=C2C[C@@H](C)C[C@H](OC)[C@H](O)[C@@H](C)/C=C(\C)[C@H](OC(N)=O)[C@@H](OC)/C=C\C=C(/C)C(=O)NC(=CC1=O)C2=O [geldanamycin, reference compound]",elution of ATP-binding proteins from ATP-sepharose beads,dose-dependent elution of a band at 90 kDa corresponding to Hsp90
